Results as given in article PMC4657329.
These are yes or no findings as the source states them, for the method shown. In cells and extracts the contact can be indirect. Some binding calls cover weakened binding; strength is not graded here. Where a sequence is shown, tags or fusion partners need not be part of it.

T1: ^HABim1 (S. cerevisiae) (UniProt P40013)
T1 sequence: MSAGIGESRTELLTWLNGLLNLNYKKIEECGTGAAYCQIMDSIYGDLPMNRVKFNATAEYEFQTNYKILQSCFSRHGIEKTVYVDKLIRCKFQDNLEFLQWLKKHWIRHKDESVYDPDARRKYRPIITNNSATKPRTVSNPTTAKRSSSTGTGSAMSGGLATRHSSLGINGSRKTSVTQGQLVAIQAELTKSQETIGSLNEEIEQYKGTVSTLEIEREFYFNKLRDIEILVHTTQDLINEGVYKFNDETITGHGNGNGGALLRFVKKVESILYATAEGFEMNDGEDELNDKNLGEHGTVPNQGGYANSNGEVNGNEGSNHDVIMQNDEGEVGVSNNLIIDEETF

B1: Δ70-Kip2^13myc (domain or fragment, UniProt P28743 71-706)
chain: KSDPFLHPGRIRIRRSDSINNNSRKNDTYTGSITVTIRPKPRSVGTSRDHVGLKSPRYSQPRSNSHHGSNTFVRDPWFITNDKTIVHEEIGEFKFDHVFASHCTNLEVYERTSKPMIDKLLMGFNATIFAYGMTGSGKTFTMSGNEQELGLIPLSVSYLFTNIMEQSMNGDKKFDVIISYLEIYNERIYDLLESGLEESGSRISTPSRLYMSKSNSNGLGVELKIRDDSQYGVKVIGLTERRCESSEELLRWIAVGDKSRKIGETDYNARSSRSHAIVLIRLTSTNVKNGTSRSSTLSLCDLAGSERATGQQERRKEGSFINKSLLALGTVISKLSADKMNSVGSNIPSPSASGSSSSSGNATNNGTSPSNHIPYRDSKLTRLLQPALSGDSIVTTICTVDTRNDAAAETMNTLRFASRAKNVALHVSKKSIISNGNNDGDKDRTIELLRRQLEEQRRMISELKNRSNIGEPLTKSSNESTYKDIKATGNDGDPNLALMRAENRVLKYKLENCEKLLDKDVVDLQDSEIMEIVEMLPFEVGTLLETKFQGLESQIRQYRKYTQKLEDKIMALEKSGHTAMSLTGCDGTEVIELQKMLERKDKMIEALQSAKRLRDRALKPLINTQQSPHPVVDNDK
B2: Δ37-Kip2^13myc (domain or fragment, UniProt P28743 38-706)
chain: LTRNSIRSTSNSGSQSISASSTRSNSPLRSVSAKSDPFLHPGRIRIRRSDSINNNSRKNDTYTGSITVTIRPKPRSVGTSRDHVGLKSPRYSQPRSNSHHGSNTFVRDPWFITNDKTIVHEEIGEFKFDHVFASHCTNLEVYERTSKPMIDKLLMGFNATIFAYGMTGSGKTFTMSGNEQELGLIPLSVSYLFTNIMEQSMNGDKKFDVIISYLEIYNERIYDLLESGLEESGSRISTPSRLYMSKSNSNGLGVELKIRDDSQYGVKVIGLTERRCESSEELLRWIAVGDKSRKIGETDYNARSSRSHAIVLIRLTSTNVKNGTSRSSTLSLCDLAGSERATGQQERRKEGSFINKSLLALGTVISKLSADKMNSVGSNIPSPSASGSSSSSGNATNNGTSPSNHIPYRDSKLTRLLQPALSGDSIVTTICTVDTRNDAAAETMNTLRFASRAKNVALHVSKKSIISNGNNDGDKDRTIELLRRQLEEQRRMISELKNRSNIGEPLTKSSNESTYKDIKATGNDGDPNLALMRAENRVLKYKLENCEKLLDKDVVDLQDSEIMEIVEMLPFEVGTLLETKFQGLESQIRQYRKYTQKLEDKIMALEKSGHTAMSLTGCDGTEVIELQKMLERKDKMIEALQSAKRLRDRALKPLINTQQSPHPVVDNDK
B3: Kip2^13myc variant with the SNIP motif mutated to SNSS (protein, UniProt P28743 1-706)
chain: MIQKMSPSLRRPSTRSSSGSSNSSQSPSVRSTSSFSNLTRNSIRSTSNSGSQSISASSTRSNSPLRSVSAKSDPFLHPGRIRIRRSDSINNNSRKNDTYTGSITVTIRPKPRSVGTSRDHVGLKSPRYSQPRSNSHHGSNTFVRDPWFITNDKTIVHEEIGEFKFDHVFASHCTNLEVYERTSKPMIDKLLMGFNATIFAYGMTGSGKTFTMSGNEQELGLIPLSVSYLFTNIMEQSMNGDKKFDVIISYLEIYNERIYDLLESGLEESGSRISTPSRLYMSKSNSNGLGVELKIRDDSQYGVKVIGLTERRCESSEELLRWIAVGDKSRKIGETDYNARSSRSHAIVLIRLTSTNVKNGTSRSSTLSLCDLAGSERATGQQERRKEGSFINKSLLALGTVISKLSADKMNSVGSNIPSPSASGSSSSSGNATNNGTSPSNHIPYRDSKLTRLLQPALSGDSIVTTICTVDTRNDAAAETMNTLRFASRAKNVALHVSKKSIISNGNNDGDKDRTIELLRRQLEEQRRMISELKNRSNIGEPLTKSSNESTYKDIKATGNDGDPNLALMRAENRVLKYKLENCEKLLDKDVVDLQDSEIMEIVEMLPFEVGTLLETKFQGLESQIRQYRKYTQKLEDKIMALEKSGHTAMSLTGCDGTEVIELQKMLERKDKMIEALQSAKRLRDRALKPLINTQQSPHPVVDNDK

These binders were tested against T1, ^HABim1 (S. cerevisiae) (assay: co-IP; ^HABim1 precipitated overnight with anti-HA antibody and protein-A-Sepharose from extracts of kip2Δ or kip2Δ bik1Δ yeast cells expressing plasmid-borne Kip2^13myc variants; 50 mM Tris pH 7.6, 150 mM NaCl, 1 mM MgCl2, 0.1% NP-40; blots with anti-HA and anti-Myc).

binding	Binder
binds weakly	B1
binds weakly	B2
no binding	B3
